{
  "source": "patent US7569354B2",
  "about": "“Cellomics system” (OnChip Cellomics Consortium, priority 2004, dated 2009)",
  "data": [
    {"tested_on": "transporters from neuron-derived, testicular and pulmonary cell membranes", "assay": "biological material separator with three transporter chips, amino-acid analysis using nano LC", "details": "amino acid mixed solution fed in clearance 30-1, pH 6.5", "values": [
      {"smiles": "C[C@H](N)C(=O)O", "note": "[Alanine, alanine]", "distribution over clearances 30-2 to 30-4": "detected in all of the clearances"},
      {"smiles": "N[C@@H](CC(=O)O)C(=O)O", "note": "[aspartic acid]", "distribution over clearances 30-2 to 30-4": "accumulated in the clearances 30-2 and 30-3"},
      {"smiles": "N[C@@H](CCC(=O)O)C(=O)O", "note": "[glutamic acid]", "distribution over clearances 30-2 to 30-4": "accumulated in the clearances 30-2 and 30-3"},
      {"smiles": "NC(=O)CC[C@H](N)C(=O)O", "note": "[glutamine]", "distribution over clearances 30-2 to 30-4": "detected in all of the clearances"}
    ]}
  ]
}
